Measurements reported in PubChem BioAssay AID1259308 (NCATS, 2017).
Here is an unselected part of about 59,000 deposited reagents. About 1,510 of them (2.6%) count as active. 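Calls use total luciferase alone and ignore viability, so some active siRNAs may act by altering cell number.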 Reagents against one gene are numbered here. Further read-outs or replicates are left out here.

- Screen: 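Genes whose loss raises luciferase production in HEK293 cells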 (primary screen)
- Cell system: human HEK293 embryonic kidney cells stably expressing firefly luciferase (HEK-CMV-Luc2-Hygro)
- Knock-down reagent: single siRNA against human genes, 0.8 pmol siRNA per well
- Duration: 72 h
- Detection: 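Reporter luminescence and viable-cell signal on separate replicate plates, given as percent of non-targeting control and median/MAD z-scores, plus per-cell luciferase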
- Scale: total luciferase, z-score and total luciferase, % of control: higher = more reporter protein produced
- Hit rule: 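An siRNA counts as active if its total luciferase robust z-score exceeds 3; genes with two or more such siRNAs out of three were retested with fresh siRNAs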
- Meaning of the calls: active = raised luciferase; inactive = no rise

RADIL #1: total luciferase, z-score = 4.56; total luciferase, % of control = 173; Call = active
RADIL #2: total luciferase, z-score = 0.204; total luciferase, % of control = 85.9; Call = inactive
RADIL #3: total luciferase, z-score = 0.804; total luciferase, % of control = 97.9; Call = inactive
CHL1 #1: total luciferase, z-score = 0.619; total luciferase, % of control = 94.2; Call = inactive
CHL1 #2: total luciferase, z-score = -0.635; total luciferase, % of control = 69.3; Call = inactive
CHL1 #3: total luciferase, z-score = 0.187; total luciferase, % of control = 85.6; Call = inactive
MED29 #1: total luciferase, z-score = -0.513; total luciferase, % of control = 71.7; Call = inactive
MED29 #2: total luciferase, z-score = 1.71; total luciferase, % of control = 116; Call = inactive
MED29 #3: total luciferase, z-score = -1.6; total luciferase, % of control = 50.1; Call = inactive
PPM1D #1: total luciferase, z-score = 0.348; total luciferase, % of control = 88.8; Call = inactive
PPM1D #2: total luciferase, z-score = -1.13; total luciferase, % of control = 59.3; Call = inactive
PPM1D #3: total luciferase, z-score = -0.85; total luciferase, % of control = 65; Call = inactive
UQCRC2 #1: total luciferase, z-score = 0.694; total luciferase, % of control = 95.7; Call = inactive
UQCRC2 #2: total luciferase, z-score = 1.88; total luciferase, % of control = 119; Call = inactive
UQCRC2 #3: total luciferase, z-score = -0.335; total luciferase, % of control = 75.2; Call = inactive
FAN1 #1: total luciferase, z-score = -0.915; total luciferase, % of control = 63.7; Call = inactive
FAN1 #2: total luciferase, z-score = -0.0579; total luciferase, % of control = 80.7; Call = inactive
FAN1 #3: total luciferase, z-score = -1.13; total luciferase, % of control = 59.4; Call = inactive
TNFRSF1A #1: total luciferase, z-score = -0.772; total luciferase, % of control = 66.5; Call = inactive
TNFRSF1A #2: total luciferase, z-score = 0.356; total luciferase, % of control = 89; Call = inactive
TNFRSF1A #3: total luciferase, z-score = 1.22; total luciferase, % of control = 106; Call = inactive

An excerpt from above, limited to “total luciferase, % of control”:
FAN1 #2: 80.7
FAN1 #3: 59.4
TNFRSF1A #1: 66.5
